Tests used:
[1] = Thermal transfer of dye, donor sheet A to receptor sheet B, image density
[2] = Thermal transfer of dye, donor sheet B to receptor sheet B, image density

| Compound | Image Density (Reflectance Optical Density) ([1]; Level 1) | Image Density (Reflectance Optical Density) ([1]; Level 2) | Image Density (Reflectance Optical Density) ([1]; Level 3) | Image Density (Reflectance Optical Density) ([1]; Level 4) | Image Density (Reflectance Optical Density) ([1]; Level 5) | Image Density (Reflectance Optical Density) ([1]; Level 6) | Image Density (Reflectance Optical Density) ([1]; Level 7) | Image Density (Reflectance Optical Density) ([1]; Level 8) | Image Density (Reflectance Optical Density) ([2]; Level 1) | Image Density (Reflectance Optical Density) ([2]; Level 2) | Image Density (Reflectance Optical Density) ([2]; Level 3) | Image Density (Reflectance Optical Density) ([2]; Level 4) | Image Density (Reflectance Optical Density) ([2]; Level 5) | Image Density (Reflectance Optical Density) ([2]; Level 6) | Image Density (Reflectance Optical Density) ([2]; Level 7) | Image Density (Reflectance Optical Density) ([2]; Level 8) |
| --- | --- | --- | --- | --- | --- | --- | --- | --- | --- | --- | --- | --- | --- | --- | --- | --- |
| [6-[[(2-hydroxy-5-nitrophenyl)imino]methyl]-3,5-dimethoxyphenolato-N,O,O](3-butylpyridine)(2,4-pentanedionato-O,O)chromium [Compound 35] | 0.04 | 0.08 | 0.12 | 0.15 | 0.18 | 0.23 | 0.26 | 0.31 | – | – | – | – | – | – | – | – |
| CC(=O)C=C(C)[O-].CCc1ccncc1.[Cr+3].[O-]c1ccccc1N=Nc1ccccc1[O-] [Compound 31, [[2,2-azobis[phenolato]](-2)-N,O,O](2,4-pentanedionato-O,O)(4-ethylpyridine)chromium] | 0.09 | 0.18 | 0.28 | 0.36 | 0.44 | 0.50 | 0.59 | 0.67 | 0.08 | 0.15 | 0.24 | 0.31 | 0.41 | 0.51 | 0.59 | 0.62 |
